At least one result comes from cells or an extract, where the contact may be indirect. Negatives hold for the conditions tested.
Experiments:
Experiment in all cases: EMSA
[1] = molecular target: TAp63α (UniProt Q9H3D4); settings: 100 pM probe, room temperature, protein in a lysate after overexpression, label: 32P
[2] = molecular target: ΔNp63γ (UniProt Q9H3D4); settings: 100 pM probe, room temperature, protein in a lysate after overexpression, label: 32P
[3] = molecular target: GFP (UniProt P42212); settings: negative control lysate, protein in a lysate after overexpression, label: 32P

Amino acid sequences for entries named in this document (tags omitted). A change or cut given only in a name is not applied to a line headed by its entry. Residues count along the entry.
UniProt Q9H3D4, 40-680: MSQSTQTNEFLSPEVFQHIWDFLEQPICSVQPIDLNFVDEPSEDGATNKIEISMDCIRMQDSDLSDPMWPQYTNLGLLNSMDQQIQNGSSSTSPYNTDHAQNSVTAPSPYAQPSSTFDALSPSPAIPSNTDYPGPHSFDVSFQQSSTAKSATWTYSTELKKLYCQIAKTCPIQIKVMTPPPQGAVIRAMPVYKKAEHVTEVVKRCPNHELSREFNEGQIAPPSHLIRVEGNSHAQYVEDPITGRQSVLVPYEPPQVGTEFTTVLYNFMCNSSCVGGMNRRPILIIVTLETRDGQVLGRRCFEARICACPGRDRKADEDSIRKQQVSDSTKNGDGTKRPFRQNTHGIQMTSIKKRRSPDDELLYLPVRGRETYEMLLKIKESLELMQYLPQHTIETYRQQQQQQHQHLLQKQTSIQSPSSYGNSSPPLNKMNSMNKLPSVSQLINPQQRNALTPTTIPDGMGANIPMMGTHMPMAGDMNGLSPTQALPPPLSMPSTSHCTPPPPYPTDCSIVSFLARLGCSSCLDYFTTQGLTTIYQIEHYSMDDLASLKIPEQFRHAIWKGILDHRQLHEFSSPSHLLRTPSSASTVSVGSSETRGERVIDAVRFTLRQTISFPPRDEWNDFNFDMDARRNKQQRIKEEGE

Sequence | binding result [1] | binding result [2] | binding result [3] | binding result ([1]; no shift, variant of PG) | binding result ([2]; no shift, variant of PG) | binding result ([3]; variant of PG)
CCTGCCTGGACTTGCCTGG (double strand) [PG] | binds | binds | no binding | – | – | –
CCTTAATGGACTTTAATGG (double strand) [MG] | – | – | – | no binding | no binding | no binding

Reference: US20040132120
